Values quoted from earlier work, collected in US8217084B2, “Medicinal products incorporating bound organosulfur groups” (Allium Vitalis Incorporated, priority 2004, dated 2012).
For at least one compound, name, drawing or mass did not settle the structure.

Key:
Details in all cases: cited from earlier work
common cold = tested on: common cold
bacterial RNA synthesis = tested on: bacterial RNA synthesis
[1] = tested on: fifteen strains of bacteria
papain = target: T1, papain (Carica papaya, UniProt P00784)
T1 sequence (P00784 134-345): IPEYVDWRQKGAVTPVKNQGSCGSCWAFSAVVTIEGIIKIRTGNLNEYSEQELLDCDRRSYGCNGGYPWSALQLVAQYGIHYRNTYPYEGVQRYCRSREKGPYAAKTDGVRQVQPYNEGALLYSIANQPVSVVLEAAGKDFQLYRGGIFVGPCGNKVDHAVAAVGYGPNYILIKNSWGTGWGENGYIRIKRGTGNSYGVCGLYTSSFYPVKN

C=CCS[S+]([O-])CC=C (stereo not shown) [Allicin, DiAllylThioSulfinate]
frequency of infection (common cold; vs. 65 for the placebo group): 24
average duration of symptoms (common cold; vs. 5 days for the placebo group): 1.5 days
rate of bacterial RNA synthesis, of that of control cells (bacterial RNA synthesis): below 1%
concentration that completely inhibited growth ([1]; fourteen out of the fifteen strains): 1:125,000
effect on growth ([1]; half of 1:125,000): no effect on any strain tested
degree of papain inhibition (papain): ~99%
papain activity remaining, of its initial activity (papain): 1%
